The target in this experiment is YFP-NEDD4-WW, WW domains of NEDD4 fused to EYFP. The experiment can be described thus: co-IP; HEK293T transfected with YFP-NEDD4-WW, myc-GOPC and untagged pUL56 or pUL56-AAXA; IP with YFP affinity resin; immunoblot. (In general: Immunoblotting shows a protein as a band on a membrane.)

These are yes or no findings as the source states them, for the method shown. Binding seen in cells or lysates may run through a third protein. Binding can be weak; no strength is given. Where a sequence is shown, tags or fusion partners need not be part of it.

B1: untagged pUL56 (WT) (protein, UniProt P10240 1-234)
chain: MASEAAQPDAGLWSAGNAFADPPPPYDSLSGRNEGPFVVIDLDTPTDPPPPYSAGPLLSVPIPPTSSGEGEASERGRSRQAAQRAARRARRRAERRAQRRSFGPGGLLATPLFLPETRLVAPPDITRDLLSGLPTYAEAMSDHPPTYATVVAVRSTEQPSGALAPDDQRRTQNSGAWRPPRVNSRELYRAQRAARGSSDHAPYRRQGCCGVVWRHAVFGVVAIVVVIILVFLWR
Turning to B1, the binding entry was “binds”.
